The text below walks through data of patent publication US8673841B2 (Ferring B.V., priority 2008, dated 2014).

The nature of this data set: general procedure: peptide synthesis; Rink Amide AM resin or MBHA resin; DIC/HOBt/DMF (Fmoc amino acids); DIC or DCC in DCM (Boc amino acids). Particulars: whole synthesis.

The substance [4-PicGly^7]dOT registered an isolated mass of 348.7 mg. Further, the “final HPLC purity” value (analytical HPLC, Vydac C18, 1100 Agilent, scale of the general procedure 0.87 mmol, 0.94 mmol) turned out to be 99.9%. Where the note is “based on the loading of the starting resin and assuming 85% peptide content, scale of the general procedure 0.87 mmol, 0.94 mmol”, the isolated yield entry is “˜44%”.
